These are yes or no findings as the source states them, for the method shown.
Target: Arabidopsis thaliana Ethylene Response Factor 96 (Arabidopsis thaliana) (UniProt Q9LSX0)
Test: SEC + other: dynamic light scattering; Superdex 75 in 30 mM HEPES pH 8.0, 500 mM NaCl, 10% glycerol; DLS of the purified protein at 1 mg/mL, 25 °C; both purified

Sequences of proteins named here, by UniProt entry; tags and fusion partners are left off.
UniProt Q9LSX0: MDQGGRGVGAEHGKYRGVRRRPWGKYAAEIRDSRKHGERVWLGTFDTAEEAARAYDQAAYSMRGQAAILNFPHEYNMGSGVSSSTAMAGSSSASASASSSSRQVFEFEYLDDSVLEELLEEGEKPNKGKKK

- binding: no binding
Substance: Arabidopsis thaliana Ethylene Response Factor 96 (from UniProt Q9LSX0 1-131)
